Assay results published in PubChem BioAssay AID488948 (Broad Institute, 2010).
Only results without a clear call are listed here; the source files them as inconclusive.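 Rule for the calls: active = compounds raising caspase signal whose fitted AC50 is at or under a set limit scaled from top dose; inconclusive = flat fit at middling activation, or poor curve fit; inactive = the rest.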

Experiment: apoptosis induction, MEWO cells without priming – caspase-Glo luminescence, dry powder, counter-screen for Bcl2-A1 inhibitor project, dose response (AID 488948)
Conditions: MEWO unprimed cells, caspase-3/7 Glo luminescence, 3 h, active compounds read high; at 100 µM unless noted
In short: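 Assay system: unprimed A1-expressing MEWO cells; quantity: 2500 cells per well; medium: RPMI-1640, 10% fetal bovine serum; dosing: compound added by pin transfer, day after plating; schedule: 3 h compound exposure (37 °C), 1 h reagent (RT); detection: CaspaseGlo luminescence after 1 h at room temperature; read-out: caspase activation from luminescent signal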

Row | Structure (SMILES) | max caspase activation
1 | CC1(C)CCC(c2ccc(Cl)cc2)=C(CN2CCN(c3ccc(C(=O)NS(=O)(=O)c4ccc(N[C@H](CCN5CCOCC5)CSc5ccccc5)c(S(=O)(=O)C(F)(F)F)c4)cc3)CC2)C1 | inconclusive: 0% [at 0 µM]
2 | CCc1cc2c(=O)c(-c3cnn(-c4ccccc4)c3)c(C)oc2cc1OCC(=O)Nc1cccc(C)c1 | inconclusive: 62.8%
